# In the supplement of paper PMC4604168 (melanoma cell lines):
# Some of the results follow. Repeats are few or missing, and single values can be far off.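 Cells were imaged in 1,536-well plates, and nuclei stained with an antibody against cleaved PARP were counted against all DNA-stained nuclei to give the apoptosis fraction. Screening doses were chosen to leave most cells alive, and resting and induced cleaved-PARP levels differ strongly between cell lines.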
# Tested on: 501Mel
# Assay: cleaved PARP positive nuclei fraction relative to DMSO control; melanoma cells; higher = more apoptosis
# Settings: library dose: low library concentration; 72 h
row,Structure (SMILES),cleaved PARP positive nuclei fraction [%]
1,"Cn1cncc1[C@@](N)(c1ccc(Cl)cc1)c1ccc2c(c1)c(-c1cccc(Cl)c1)cc(=O)n2C [tipifarnib] + c1cc(-c2cnn3cc(-c4ccc(OCCN5CCCCC5)cc4)cnc23)ccn1 [Dorsomorphin] (first compound 0.01 µM, partner dose 0.4 µM)",254
2,"Cc1cc(N2CCOCC2)cc2[nH]c(-c3c(NC[C@@H](O)c4cccc(Cl)c4)cc[nH]c3=O)nc12 + Cn1cc(/C=C2\C(=O)Nc3cccnc32)c2ccccc21 [GW441756] (first compound 0.2 µM, partner dose 0.4 µM)",64.9
3,"Cn1c(Nc2ccc(C(F)(F)F)cc2)nc2cc(Oc3ccnc(-c4ncc(C(F)(F)F)[nH]4)c3)ccc21 + Oc1nc(-c2ccc(C(F)(F)F)cc2)nc2c1CSCC2 [XAV939] (first compound 0.08 µM, partner dose 2 µM)",60.4
4,"Cn1nnc2c(C(N)=O)ncn2c1=O [temozolomide] + CC(C)CCN1c2nc(Nc3cc(F)c(O)c(F)c3)ncc2N(C)C(=O)C1C [BID1870] (first compound 2 µM, partner dose 0.2 µM)",22
5,"C[C@]1(c2nc3c(C(N)=O)cccc3[nH]2)CCCN1 [Veliparib] + O=C(O)C(=O)Nc1sc2c(c1C(=O)O)CCNC2 [TCS401] (first compound 1.4 µM, partner dose 1.66667 µM)",95.9
6,"O=C(Nc1cccc(Cl)c1)Nc1ncc(CCNc2ncnc3ccsc23)s1 + COc1cc2ncnc(Nc3ccc(Oc4ccccc4)cc3)c2cc1OC [SrcI1] (first compound 0.0008 µM, partner dose 2 µM)",81
7,"NC(=O)Nc1cc(-c2cccc(F)c2)sc1C(=O)N[C@H]1CCCNC1 + O=c1cc(-c2cccc3c2Sc2ccccc2S3)oc(N2CCOCC2)c1 [KU55933] (first compound 0.02 µM, partner dose 1 µM)",69.8
8,"CC(C)(C)c1cnc(CSc2cnc(NC(=O)C3CCNCC3)s2)o1 + N#Cc1c(O)c2c(-c3ccc(-c4ccccc4O)cc3)csc2[nH]c1=O [A769662] (first compound 0.01 µM, partner dose 2 µM)",34.1
